Reference: PubChem BioAssay AID1259260 (Sanger Institute, 2017)

Assay: 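Essential and drug-synergistic kinases in a colorectal cancer cell line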 (primary screen)
System: human NCI-H716 colorectal cancer cells
Reagents: siRNA pool against human genes
Challenge: anchor drugs BYL719 (alpelisib) 1 µM, cetuximab 5 µg/ml or trametinib 10 nM, each at a dose chosen to harm viability only mildly; DMSO vehicle for the knock-down-alone arm
Measurement: 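Replicate-averaged viability relative to a non-targeting pool, a robust z-score for knock-down alone, and a synergy score per anchor drug versus each agent alone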
Direction: viability robust z-score, siRNA alone: higher = more surviving cells; below -3 called essential; viability vs control, no drug: higher = more surviving cells
Hit rule: 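Essential when the robust z-score for knock-down alone falls below -3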
Meaning of the calls: active = essential (knock-down alone lowers viability); inactive = no essential effect
The deposit covers 794 reagents; below is an unselected part. In the full data, 13 (1.6%) are marked active. 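Calls reflect only knock-down without drug; synergy above 0.15 was grouped apart and does not change the call.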 A number with no mark means an inactive call. No viability above 1 is reported: the scale is capped. Not all columns of the deposit are shown. No sequences are given here. Not stated in the record: the amount of reagent, the time to read-out.

{"gene": "PHKA2", "PubChem SID": "SID56479176", "viability robust z-score, siRNA alone": 0.231, "viability vs control, no drug (fraction of control)": 0.961}
{"gene": "PFKFB3", "PubChem SID": "SID135621247", "viability robust z-score, siRNA alone": 0.602, "viability vs control, no drug (fraction of control)": 1}
{"gene": "ROCK2", "PubChem SID": "SID135620850", "viability robust z-score, siRNA alone": -0.828, "viability vs control, no drug (fraction of control)": 0.851}
{"gene": "CLK2", "PubChem SID": "SID152151259", "viability robust z-score, siRNA alone": -0.0246, "viability vs control, no drug (fraction of control)": 0.935}
{"gene": "GCK", "PubChem SID": "SID56479241", "viability robust z-score, siRNA alone": 0.0298, "viability vs control, no drug (fraction of control)": 0.941}
{"gene": "TAF1", "PubChem SID": "SID56478970", "viability robust z-score, siRNA alone": 0.602, "viability vs control, no drug (fraction of control)": 1}
{"gene": "PRKCE", "PubChem SID": "SID135620860", "viability robust z-score, siRNA alone": -0.746, "viability vs control, no drug (fraction of control)": 0.86}
{"gene": "DCLK2", "PubChem SID": "SID152154613", "viability robust z-score, siRNA alone": -1.57, "viability vs control, no drug (fraction of control)": 0.774}
{"gene": "PCK1", "PubChem SID": "SID135621257", "viability robust z-score, siRNA alone": 0.2, "viability vs control, no drug (fraction of control)": 0.958}
{"gene": "FN3K", "PubChem SID": "SID56479098", "viability robust z-score, siRNA alone": 0.602, "viability vs control, no drug (fraction of control)": 1}
{"gene": "MAGI3", "PubChem SID": "SID152154544", "viability robust z-score, siRNA alone": -0.38, "viability vs control, no drug (fraction of control)": 0.898}
{"gene": "CDKN2C", "PubChem SID": "SID56478606", "viability robust z-score, siRNA alone": 0.602, "viability vs control, no drug (fraction of control)": 1}
{"gene": "EPHA1", "PubChem SID": "SID152153474", "viability robust z-score, siRNA alone": 0.454, "viability vs control, no drug (fraction of control)": 0.985}
{"gene": "IPMK", "PubChem SID": "SID152147042", "viability robust z-score, siRNA alone": 0.602, "viability vs control, no drug (fraction of control)": 1}
{"gene": "NIM1K", "PubChem SID": "SID56478948", "viability robust z-score, siRNA alone": 0.602, "viability vs control, no drug (fraction of control)": 1}
{"gene": "TNIK", "PubChem SID": "SID152153870", "viability robust z-score, siRNA alone": -1.77, "viability vs control, no drug (fraction of control)": 0.754}
{"gene": "BPTF", "PubChem SID": "SID152156181", "viability robust z-score, siRNA alone": 0.602, "viability vs control, no drug (fraction of control)": 1}
{"gene": "HK1", "PubChem SID": "SID56479165", "viability robust z-score, siRNA alone": -0.0572, "viability vs control, no drug (fraction of control)": 0.931}
{"gene": "FGFR1", "PubChem SID": "SID135620619", "viability robust z-score, siRNA alone": 0.602, "viability vs control, no drug (fraction of control)": 1}
{"gene": "PIP5KL1", "PubChem SID": "SID56479217", "viability robust z-score, siRNA alone": 0.602, "viability vs control, no drug (fraction of control)": 1}
{"gene": "LMTK2", "PubChem SID": "SID152147902", "viability robust z-score, siRNA alone": 0.602, "viability vs control, no drug (fraction of control)": 1}
{"gene": "MLKL", "PubChem SID": "SID56479010", "viability robust z-score, siRNA alone": -2.1, "viability vs control, no drug (fraction of control)": 0.72}
{"gene": "SGK2", "PubChem SID": "SID56478843", "viability robust z-score, siRNA alone": -0.882, "viability vs control, no drug (fraction of control)": 0.846}
{"gene": "RIPK4", "PubChem SID": "SID135620968", "viability robust z-score, siRNA alone": 0.421, "viability vs control, no drug (fraction of control)": 0.981}
{"gene": "MAPK11", "PubChem SID": "SID56478748", "viability robust z-score, siRNA alone": 0.102, "viability vs control, no drug (fraction of control)": 0.948}
{"gene": "MYH10", "PubChem SID": "SID134325581", "viability robust z-score, siRNA alone": 0.602, "viability vs control, no drug (fraction of control)": 1}
{"gene": "UHMK1", "PubChem SID": "SID152150381", "viability robust z-score, siRNA alone": 0.602, "viability vs control, no drug (fraction of control)": 1}
{"gene": "NEK7", "PubChem SID": "SID56478729", "viability robust z-score, siRNA alone": 0.602, "viability vs control, no drug (fraction of control)": 1}

Look-ups from the entries so far:
Value for DCLK2 [SID152154613] under “viability robust z-score, siRNA alone”: -1.57
CDKN2C [SID56478606], viability robust z-score, siRNA alone → 0.602
